Taken from: PubChem BioAssay AID1259425 (University of Nebraska Medical Center, 2018)
In all, the deposit lists about 14,000 reagents; this is a random part of them. Some reagents were tested in more than one well and are listed for each. Not given: the time to read-out.

- Test: 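Find knockdowns that reproduce the gene expression pattern seen when KSR1 is lost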 (primary screen)
- Cell system: HCT116 human colon cancer cells
- Reagents: siRNA pool against human genes, 50 nM siRNA
- Detection: 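After 50 nM siRNA pool, branched-DNA assay measures six marker transcripts per well, minus blank, normalised to the geometric mean of two housekeeping transcripts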
- Scale: BNIP3L mRNA: higher = more BNIP3L transcript after knockdown; NDRG1 mRNA: higher = more NDRG1 transcript after knockdown; BNIP3 mRNA: higher = more BNIP3 transcript after knockdown; ALDOC mRNA: higher = more ALDOC transcript after knockdown; ACSL5 mRNA: higher = more ACSL5 transcript after knockdown

| gene | PubChem SID | BNIP3L mRNA, set 1 | NDRG1 mRNA, set 1 | BNIP3 mRNA, set 1 | ALDOC mRNA, set 1 | ACSL5 mRNA, set 1 |
| --- | --- | --- | --- | --- | --- | --- |
| AMMECR1L (AMMECR1 like) | SID364003629 | 0.156 | 0.142 | 0.305 | 0.0656 | 0.223 |
| ESRRG (estrogen related receptor gamma) | SID363992700 | 0.0816 | 0.07 | 0.218 | 0.0116 | 0.0904 |
| CALN1 (calneuron 1) | SID364003650 | 0.0921 | 0.404 | 0.369 | 0.0307 | 0.289 |
| RPL37 (ribosomal protein L37) | SID363992280 | 0.0905 | 0.148 | 0.328 | 0.0358 | 0.18 |
| AKR1E2 (aldo-keto reductase family 1 member E2) | SID364003621 | 0.0731 | 0.0679 | 0.286 | 0.0144 | 0.148 |
| DUSP15 (dual specificity phosphatase 15) | SID364004487 | 0.0545 | 0.0711 | 0.224 | 0.0199 | 0.14 |
| CCDC47 (coiled-coil domain containing 47) | SID364001551 | 0.166 | 0.417 | 0.325 | 0.0475 | 0.247 |
| CD300C (CD300c molecule) | SID363997462 | 0.0717 | 0.152 | 0.237 | 0.0182 | 0.122 |
| GJC2 (gap junction protein gamma 2) | SID364001694 | 0.0816 | 0.289 | 0.308 | 0.0208 | 0.162 |
| PKP2 (plakophilin 2) | SID363995543 | 0.0615 | 0.114 | 0.321 | 0.0413 | 0.214 |
| SLC43A1 | SID363994703 | 0.142 | 0.142 | 0.364 | 0.0132 | 0.301 |
| CRTAC1 (cartilage acidic protein 1) | SID364000746 | 0.127 | 0.214 | 0.307 | 0.0849 | 0.201 |
| KCNA1 (potassium voltage-gated channel subfamily A member 1) | SID363991552 | 0.0759 | 0.215 | 0.215 | 0.0274 | 0.127 |
| ATP6V1B1 (ATPase H+ transporting V1 subunit B1) | SID363992914 | 0.0459 | 0.133 | 0.257 | 0.0398 | 0.259 |
| BCAR3 (BCAR3 adaptor protein, NSP family member) | SID363994649 | 0.129 | 0.0645 | 0.198 | 0.0268 | 0.136 |
| ANXA7 (annexin A7) | SID363992448 | 0.0597 | 0.231 | 0.502 | 0.0122 | 0.103 |
| REEP1 (receptor accessory protein 1) | SID364002601 | 0.175 | 0.386 | 0.358 | 0.0266 | 0.234 |
| S1PR3 (sphingosine-1-phosphate receptor 3) | SID363996148 | 0.133 | 0.283 | 0.2 | 0.0154 | 0.111 |
| FLNC (filamin C) | SID363992720 | 0.114 | 0.207 | 0.136 | 0.013 | 0.122 |
| C3orf18 (chromosome 3 open reading frame 18) | SID363999952 | 0.23 | 1.37 | 0.451 | 0.0449 | 0.387 |
| NRAS (NRAS proto-oncogene, GTPase) | SID363993696 | 0.116 | 0.0878 | 0.324 | 0.0144 | 0.112 |
| TWF1 (twinfilin actin binding protein 1) | SID363993978 | 0.108 | 0.208 | 0.472 | 0.00541 | 0.211 |
| VDAC3 (voltage dependent anion channel 3) | SID363996554 | 0.0949 | 0.303 | 0.386 | 0.062 | 0.35 |
| PPP3CC (protein phosphatase 3 catalytic subunit gamma) | SID363996500 | 0.0896 | 0.407 | 0.405 | 0.0278 | 0.338 |
| DIABLO (diablo IAP-binding mitochondrial protein) | SID364001465 | 0.0642 | 0.639 | 0.345 | 0.0194 | 0.162 |
| DDX18 (DEAD-box helicase 18) | SID363997543 | 0.119 | 0.194 | 0.475 | 0.0159 | 0.104 |
| SMAD3 (SMAD family member 3) | SID363996771 | 0.151 | 0.156 | 0.335 | 0.00842 | 0.321 |
| SMAD3 (SMAD family member 3) | SID363999469 | 0.0362 | 0.0904 | 0.372 | 0.0189 | 0.11 |
| CCL26 (C-C motif chemokine ligand 26) | SID363996917 | 0.083 | 0.506 | 0.552 | 0.0642 | 0.56 |
| PMS2P2 | SID363993844 | 0.102 | 0.813 | 0.284 | 0.0242 | 0.242 |
| CIB1 (calcium and integrin binding 1) | SID363997197 | 0.0596 | 0.23 | 0.168 | 0.0147 | 0.157 |
| MMP7 (matrix metallopeptidase 7) | SID363993601 | 0.158 | 0.12 | 0.451 | 0.0206 | 0.103 |
| CD27 (CD27 molecule) | SID363992527 | 0.0418 | 0.0958 | 0.217 | 0.0122 | 0.11 |
| LMNB1 (lamin B1) | SID363996471 | 0.109 | 0.0807 | 0.219 | 0.0247 | 0.177 |
| HEMK1 | SID363999925 | 0.135 | 0.125 | 0.33 | 0.0366 | 0.154 |
| ISYNA1 (inositol-3-phosphate synthase 1) | SID364000066 | 0.085 | 0.595 | 0.244 | 0.0178 | 0.19 |
| SRSF2 (serine and arginine rich splicing factor 2) | SID363994165 | 0.146 | 0.283 | 0.321 | 0.00415 | 0.12 |
| DLGAP2 (DLG associated protein 2) | SID363995703 | 0.093 | 0.0942 | 0.332 | 0.0399 | 0.0769 |
| RBM14 (RNA binding motif protein 14) | SID363997148 | 0.115 | 0.13 | 0.381 | 0.0183 | 0.081 |
| RBM14 (RNA binding motif protein 14) | SID364004256 | 0.159 | 0.199 | 0.319 | 0.136 | 0.388 |
| GBE1 (1,4-alpha-glucan branching enzyme 1) | SID363991494 | 0.108 | 0.268 | 0.397 | 0.037 | 0.203 |

Already shown: an excerpt of the list.
| gene | PubChem SID | BNIP3L mRNA, set 1 | NDRG1 mRNA, set 1 | BNIP3 mRNA, set 1 | ALDOC mRNA, set 1 | ACSL5 mRNA, set 1 |
| --- | --- | --- | --- | --- | --- | --- |
| S1PR3 (sphingosine-1-phosphate receptor 3) | SID363996148 | 0.133 | 0.283 | 0.2 | 0.0154 | 0.111 |
| FLNC (filamin C) | SID363992720 | 0.114 | 0.207 | 0.136 | 0.013 | 0.122 |
| C3orf18 (chromosome 3 open reading frame 18) | SID363999952 | 0.23 | 1.37 | 0.451 | 0.0449 | 0.387 |
| NRAS (NRAS proto-oncogene, GTPase) | SID363993696 | 0.116 | 0.0878 | 0.324 | 0.0144 | 0.112 |
| TWF1 (twinfilin actin binding protein 1) | SID363993978 | 0.108 | 0.208 | 0.472 | 0.00541 | 0.211 |
| VDAC3 (voltage dependent anion channel 3) | SID363996554 | 0.0949 | 0.303 | 0.386 | 0.062 | 0.35 |
| PPP3CC (protein phosphatase 3 catalytic subunit gamma) | SID363996500 | 0.0896 | 0.407 | 0.405 | 0.0278 | 0.338 |
| DIABLO (diablo IAP-binding mitochondrial protein) | SID364001465 | 0.0642 | 0.639 | 0.345 | 0.0194 | 0.162 |
| DDX18 (DEAD-box helicase 18) | SID363997543 | 0.119 | 0.194 | 0.475 | 0.0159 | 0.104 |

The listing continues:
| gene | PubChem SID | BNIP3L mRNA, set 1 | NDRG1 mRNA, set 1 | BNIP3 mRNA, set 1 | ALDOC mRNA, set 1 | ACSL5 mRNA, set 1 |
| --- | --- | --- | --- | --- | --- | --- |
| SORCS2 (sortilin related VPS10 domain containing receptor 2) | SID364001822 | 0.0794 | 0.366 | 0.273 | 0.00908 | 0.159 |
| KRT33A (keratin 33A) | SID363995148 | 0.17 | 0.106 | 0.366 | 0.0213 | 0.302 |
| QRICH1 (glutamine rich 1) | SID364000478 | 0.0747 | 0.135 | 0.434 | 0.0235 | 0.237 |
| PDLIM3 (PDZ and LIM domain 3) | SID363998888 | 0.147 | 0.305 | 0.347 | 0.0328 | 0.125 |
| PDLIM3 (PDZ and LIM domain 3) | SID363998888 | 0.137 | 0.211 | 0.412 | 0.00941 | 0.231 |
| ICE1 (interactor of little elongation complex ELL subunit 1) | SID364005041 | 0.12 | 0.371 | 0.538 | 0.0242 | 0.202 |
| LY86 (lymphocyte antigen 86) | SID363995266 | 0.114 | 0.383 | 0.237 | 0.0134 | 0.165 |
| KIAA0586 | SID363999079 | 0.0874 | 0.325 | 0.328 | 0.054 | 0.236 |
| LRRCC1 (leucine rich repeat and coiled-coil centrosomal protein 1) | SID364005170 | 0.224 | 0.6 | 0.509 | 0.116 | 0.435 |
| MTHFD2 | SID363997424 | 0.0795 | 0.206 | 0.306 | 0.00967 | 0.264 |
| NKX2-3 (NK2 homeobox 3) | SID364004660 | 0.0673 | 0.21 | 0.291 | 0.012 | 0.143 |
| WDR54 (WD repeat domain 54) | SID364003775 | 0.224 | 0.195 | 0.368 | 0.12 | 0.42 |
| TRIM35 (tripartite motif containing 35) | SID363999282 | 0.158 | 0.249 | 0.274 | 0.0169 | 0.0832 |
| FAIM (Fas apoptotic inhibitory molecule) | SID364000823 | 0.155 | 0.134 | 0.479 | 0.0303 | 0.093 |
| C22orf31 (chromosome 22 open reading frame 31) | SID363999448 | 0.131 | 0.393 | 0.406 | 0.0248 | 0.368 |
| SYNM (synemin) | SID363999398 | 0.139 | 0.362 | 0.256 | 0.0327 | 0.227 |
| GIGYF1 (GRB10 interacting GYF protein 1) | SID364002493 | 0.0974 | 0.351 | 0.287 | 0.0272 | 0.222 |
| TOR1B (torsin family 1 member B) | SID363998914 | 0.15 | 0.469 | 0.418 | 0.0331 | 0.109 |
| NOX3 (NADPH oxidase 3) | SID363999669 | 0.0605 | 0.42 | 0.278 | 0.00778 | 0.163 |
| BLOC1S5 (biogenesis of lysosomal organelles complex 1 subunit 5) | SID364005001 | 0.0636 | 0.129 | 0.236 | 0.00963 | 0.149 |
| ITGB6 (integrin subunit beta 6) | SID363992173 | 0.141 | 0.158 | 0.236 | 0.0196 | 0.144 |
| AP5S1 (adaptor related protein complex 5 subunit sigma 1) | SID364000994 | 0.096 | 0.103 | 0.227 | 0.0101 | 0.0723 |
